“And” between values parts separate entries of the source, which are not always exact repeats. Equal values may be shown once. Out of some 580,000 compounds screened, about 6,100 (1.1%) were called active. The shares of active, inactive and inconclusive entries below differ from those in the screen. The call rests on the fitted dose curve; in most records, active means well fitted inhibition curve with a large enough effect; inconclusive means small, poorly fitted or top-dose-only effect, or another doubt; inactive means no such curve, though single readings can be large or run the other way. Potencies beside an inconclusive call are fits to weak or partial responses and may not hold up.
Biological target: Polyunsaturated fatty acid lipoxygenase ALOX12 (Homo sapiens) (UniProt P18054)
Test: Primary qHTS assay for inhibitors of human arachidonate 12S-lipoxygenase (ALOX12): Round 2
Settings: purified 12hLO, xylenol orange hydroperoxide absorbance; activity change, negative = inhibition: at 108 µM (top of the series) unless noted
In short: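 Purified human 12hLO (150 nM final) in 25 mM Hepes, 0.01% Triton X-100, pH 7.0 was preincubated 15 min at room temperature with compound. Then 40 uM arachidonic acid was added, 30 min. Hydroperoxide was read by Fe-XO absorbance ratio 573/405 nm.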
On the % scale 0 is the no-effect control and ±100 the full control effect; potency means the concentration at half of the fitted maximal effect.

Amino acid sequences for entries named in this document (tags omitted). A change or cut given only in a name is not applied to a line headed by its entry.
UniProt P18054: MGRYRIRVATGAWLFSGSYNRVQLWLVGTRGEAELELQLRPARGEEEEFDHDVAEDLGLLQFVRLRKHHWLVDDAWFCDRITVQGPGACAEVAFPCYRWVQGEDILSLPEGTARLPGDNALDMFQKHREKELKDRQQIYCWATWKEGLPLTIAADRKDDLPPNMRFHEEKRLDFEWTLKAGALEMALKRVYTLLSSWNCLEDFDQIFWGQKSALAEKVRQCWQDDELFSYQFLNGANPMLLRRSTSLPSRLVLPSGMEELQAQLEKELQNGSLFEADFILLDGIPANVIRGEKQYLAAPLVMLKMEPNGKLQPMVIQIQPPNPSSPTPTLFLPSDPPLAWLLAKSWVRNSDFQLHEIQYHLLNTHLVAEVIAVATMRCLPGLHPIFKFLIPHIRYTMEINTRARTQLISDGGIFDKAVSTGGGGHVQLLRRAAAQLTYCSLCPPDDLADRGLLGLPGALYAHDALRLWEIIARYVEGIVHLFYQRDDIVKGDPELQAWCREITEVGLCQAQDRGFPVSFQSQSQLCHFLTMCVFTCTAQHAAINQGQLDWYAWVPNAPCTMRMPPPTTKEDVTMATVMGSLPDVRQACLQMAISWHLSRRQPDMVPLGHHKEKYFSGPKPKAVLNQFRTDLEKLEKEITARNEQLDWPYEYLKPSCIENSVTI

Structure (SMILES)	Potency	activity change, negative = inhibition
CC(C)(C)NC(=O)c1ccc(C(=O)NCC2CC2)cc1	inconclusive: 0.199 µM [inhibitor, full curve]	–
COc1ccc(C2/C(=C(/O)c3ccc(Cl)cc3)C(=O)C(=O)N2CCN2CCOCC2)c(OC)c1 (stereo not drawn)	inconclusive: 8.91 µM [inhibitor, partial curve, poor fit]	–
C/C=C/c1cc(CN2CCN(c3ccc(OC)cc3)CC2)c(O)c(OC)c1	inconclusive: 126 µM [inhibitor, single point]	–
CCCCCCN1CCN(C2CN(CCc3ccccc3)S(=O)(=O)C2)CC1 (stereo not drawn)	inactive	–
O=C(Nc1ccc2c(c1)OCO2)c1ccc2c(c1)OCO2	inactive	–
CCc1ccc(NC(=O)c2c(OC)cc(=O)n3c2CCCC3)cc1	inactive	–
COc1ccc(C)cc1NC(=O)C(C)OC(=O)c1ccsc1 (stereo not drawn)	inconclusive: 158 µM [inhibitor, single point]	–
COc1ccccc1CNC(=O)c1cc(C2CC2)nc2c1cnn2C(C)C	–	inconclusive: -52.6% [inhibitor]
CC1CCC(Nc2nc3c(-c4cccc(C(F)(F)F)c4)nnn3c3ccccc23)CC1 (stereo not drawn)	inactive	–
CCOc1ccc(C(=O)Nc2cnc3ccccc3c2)cc1OC	inconclusive: 50.1 µM [inhibitor, partial curve, poor fit]	–
CCc1nc(C(N)=O)c2[nH]c(=O)n(-c3ccccc3F)c2n1	inconclusive: 20 µM [inhibitor, partial curve, poor fit]	–
Cc1cc(C)nc(N/N=C/c2ccccc2)n1	inactive	–
C(=N\N=C(c1ccccc1)c1ccccc1)/c1cn(-c2cccs2)nc1-c1ccccc1	inactive	–
COc1cccc(CNC(=O)c2cc3oc4ccccc4c3n2C)c1OC	inactive	–
O=C1COc2ccc(-c3csc(Nc4ccc(F)c(Cl)c4)n3)cc2N1	inconclusive: 44.7 µM [inhibitor, partial curve, poor fit]	–
COCC1CN(C(C)=O)CC12CCN(Cc1ccc(Cl)cc1F)CC2 (stereo not drawn)	inconclusive: 100 µM [inhibitor, single point]	–
O=[N+]([O-])c1cccc(C=NNc2ccc3ccccc3n2)c1O	inconclusive: 7.94 µM [inhibitor, full curve, poor fit]	–
COc1ccc(Cl)cc1-c1cc(C(=O)NCc2ccco2)[nH]n1	inconclusive: 89.1 µM [inhibitor, single point]	–
O=C1CCC[C@H]2[C@@H](Cc3ccccc3)[C@@H](NS(=O)(=O)c3ccc(Br)cc3)CC[C@]23CCCN13	inconclusive: 7.08 µM [inhibitor, partial curve, poor fit]	–
CC(=O)C1C(C)CC2C3CCC4CC(=O)CCC4(C)C3CCC21C (stereo not drawn)	inactive	–
COc1ccccc1-c1noc(CCC(=O)Nc2ccc(C)cc2C)n1	inconclusive: 141 µM [inhibitor, partial curve, poor fit]	–
C#CCN(C)C(=O)[C@@H](C)C1CC[C@@]2(C)Cc3sc(NC)nc3[C@@H](C)[C@@H]2[C@H]1O (stereo partly drawn)	inconclusive: 4.47 µM [inhibitor, partial curve, poor fit]	–
CCCS(=O)(=O)N1CC(=O)N(c2cc(C)ccc2C)C(C)(C(=O)NC2CCCCCC2)C1 (stereo not drawn)	inconclusive: 112 µM [inhibitor, partial curve, poor fit]	–

Structure (SMILES)	Potency	activity change, negative = inhibition
Cc1ccc(CNc2ncnc3ccc(-c4ccoc4C)cc23)o1	inconclusive: 44.7 µM [inhibitor, partial curve, poor fit]	–
O=C(/C=C/[C@H]1O[C@@H](n2ccc(=O)[nH]c2=O)[C@H](O)[C@@H]1O)N[C@@H](Cc1ccccc1)C(=O)O	inconclusive: 112 µM [inhibitor, single point]	–
O=C(Cc1n[nH]c(=O)c2ccccc12)Nc1cccc2ccccc12	inconclusive: 50.1 µM [inhibitor, partial curve, poor fit]	–
COc1cccc(NC(=O)Nc2cc(C)ccc2OC)c1	inactive	–
COCCOC(=O)c1nccnc1C(=O)Nc1ccc(S(=O)(=O)N2CCOCC2)cc1	inconclusive: 79.4 µM [inhibitor, partial curve, poor fit]	–
Cc1ccc(C2=NN(S(C)(=O)=O)C(c3ccccc3Cl)C2)cc1 (stereo not drawn)	inconclusive: 22.4 µM [inhibitor, partial curve, poor fit]	–
O=C(CCc1nnc2ccc(NCc3ccco3)nn12)Nc1ccccc1F	inactive	–
COc1ccc(NC(=O)C2(C)Cc3c(-c4cccc(C(F)(F)F)c4)ccnc3O2)cn1 (stereo not drawn)	inactive	–
Cc1cc2c(cc1C)NC(CC(=O)Nc1ccc(C(F)(F)F)cc1)C(=O)N2 (stereo not drawn)	inconclusive: 39.8 µM [inhibitor, partial curve, poor fit]	–
O=C(COC(=O)C1COc2ccccc2O1)NC(=O)NC1CCCC1 (stereo not drawn)	inactive and inconclusive: 89.1 µM [inhibitor, single point]	–
COc1ccc(Cl)cc1NC(=O)CN(C)C(=O)c1cc(-c2ccncc2)nc2ccccc12	inactive	–
CCOc1ccc(Nc2nc(-c3ccccc3)no2)cc1	inconclusive: 3.55 µM [inhibitor, full curve]	–
Cc1cc2ccccc2n1CCNC(=O)c1ccccc1	inactive	–
CCN(C[C@H]1N[C@@](C)(C(=O)OC)[C@H]2C(=O)N(Cc3ccccc3)C(=O)[C@@H]12)S(=O)(=O)c1ccc(C)cc1	inconclusive: 50.1 µM [inhibitor, partial curve, poor fit]	–
CCn1c(CNc2ccc(Cl)cc2)nnc1SCc1ccc(C)cc1	inconclusive: 56.2 µM [inhibitor, partial curve, poor fit]	–
Cc1ccc(-c2cc(C(=O)OCC(=O)NCCc3ccccc3)c3ccccc3n2)o1	inconclusive: 7.08 µM [inhibitor, full curve, poor fit]	–
N#C/C(=C\c1ccc(Br)s1)C(=O)N1CCN(c2ccccc2)CC1	inactive	–
COc1ccccc1N1CCN(Cc2cccs2)CC1	inconclusive: 0.141 µM [inhibitor, full curve, poor fit]	–
O=C(c1ccc(Cl)cc1)N1CCn2c(nn(-c3cccc(Cl)c3)c2=O)C1	–	inactive: 7.01% [at 6.33 µM]
O=C(O)CCCNc1cc(N2CCN(C3CCCCC3)CC2)c2noc3c2c1C(=O)c1ccccc1-3	inactive	–
Cc1ccc(Cl)c(OCc2n[nH]c(=S)n2C)c1	active: 31.6 µM	–
COC(=O)C1(NC(=O)c2cc(F)cc(F)c2)CCCCC1	inactive	–
CN1CCC([C@@H]2CN(C(=O)c3ccc4cc[nH]c4c3)C[C@H]2C(N)=O)CC1	inactive	–

Structure (SMILES)	Potency	activity change, negative = inhibition
COC(=O)C1=CN(c2ccc(Cl)cc2)C=C(C(=O)OC)C1c1ccc([N+](=O)[O-])cc1	inconclusive: 50.1 µM [inhibitor, partial curve, poor fit]	–
COc1ccccc1CNc1nc(Nc2ccc(C)cc2C)c2sccc2n1	inconclusive: 50.1 µM [inhibitor, single point]	–
C/C(=N\N(c1ccccc1)c1ccccc1)c1ccc(O)cc1	inconclusive: 89.1 µM [inhibitor, partial curve, poor fit]	–
CC(C)c1ccc(NC(=O)c2ccc(NC3=NC4CS(=O)(=O)CC4S3)cc2)cc1 (stereo not drawn)	inconclusive: 63.1 µM [inhibitor, partial curve, poor fit]	–
CC(CC(=O)Nc1cccc(Cl)c1)c1ccccc1 (stereo not drawn)	inconclusive: 50.1 µM [inhibitor, single point]	–
O=C(Nc1nn[nH]n1)c1ccc(Br)c(S(=O)(=O)N2CCOCC2)c1	inconclusive: 3.16 µM [inhibitor, full curve, poor fit]	–
CC(C)CCN1C(Nc2ccccc2)=NC[C@@H]1CC(C)C	inactive	–
N#CC1=C(N)Oc2n[nH]c(-c3ccccc3)c2C1c1ccncc1 (stereo not drawn)	inconclusive: 12.6 µM [inhibitor, partial curve, poor fit]	–
CCC(=O)N1CCC2(CC1)Oc1ccc(Cl)cc1C(=O)C21CC(c2cccnc2)=NO1 (stereo not drawn)	inconclusive: 44.7 µM [inhibitor, partial curve, poor fit]	–
CCOc1ccccc1NC(=O)c1cnc(N2CCCCC2)c2ccccc12	inactive	–
Cc1ccc(OCC(=O)N2CC(C(=O)NCCc3ccncc3)C3(CCOCC3)C2)cc1 (stereo not drawn)	inactive	–
Cc1n[nH]c(C)c1CCCN(C)c1cc(C2CC(N)C2)nc(N)n1 (stereo not drawn)	inconclusive: 8.91 µM [inhibitor, partial curve, poor fit]	–
CN1C(=O)[C@H]2[C@@H](c3ccc(C(F)(F)F)cc3)N[C@]3(CCCN(Cc4ccco4)C3=O)[C@H]2C1=O	inactive	–
CC1C(=O)CC[N+](C)(C)C1C (stereo not drawn)	inconclusive: 22.4 µM [inhibitor, full curve, poor fit]	–
COc1ccc(S(=O)(=O)N(C)C[C@H]2Oc3ccc(NC(=O)Cc4cn(C)c5ccccc45)cc3C(=O)N([C@@H](C)CO)C[C@@H]2C)cc1	inactive	–
CCCCNC(=O)CN1CCN(c2nc(C(F)(F)F)nc3ccccc23)CC1	inactive	–
CN1C(=O)[C@@H]2C[C@@H](CN2Cc2ccc3ccccc3n2)Oc2ccccc21	inconclusive: 20 µM [inhibitor, partial curve, poor fit]	–
CC[N+](CC)(CC#Cc1ccccc1)CC(=O)C(C)(C)C	inactive	–
CC1=C([N+](=O)[O-])C(c2ccc(Cl)cc2)NC(=O)N1C (stereo not drawn)	inactive	–
CCC(C(=O)Nc1nc(C)c(C)s1)c1ccccc1 (stereo not drawn)	inactive	–
CC(=O)Nc1cc(C(=O)CSc2nnc(C3CC3)n2C2CC2)ccc1O	inactive	–
COc1ccc([S+](=O)([O-])N2CCC3(CC2)OCCN(c2ccc(F)cc2)C3=O)cc1	inactive	–

3 entries from above, as labelled records:
N#CC1=C(N)Oc2n[nH]c(-c3ccccc3)c2C1c1ccncc1 (stereo not drawn)
  Potency: inconclusive: 12.6 µM [inhibitor, partial curve, poor fit]
Cc1n[nH]c(C)c1CCCN(C)c1cc(C2CC(N)C2)nc(N)n1 (stereo not drawn)
  Potency: inconclusive: 8.91 µM [inhibitor, partial curve, poor fit]
CC[N+](CC)(CC#Cc1ccccc1)CC(=O)C(C)(C)C
  Potency: inactive

Source: PubChem BioAssay AID1671190 (National Center for Advancing Translational Sciences (NCATS), 2021)
